Experimental data taken from patent US20210128511A1, “PRODRUG COMPOSITIONS AND METHODS OF TREATMENT” (AQUESTIVE THERAPEUTICS, INC., priority 2019, published 2021).

assay: Intramuscular study in minipig for prodrugs, epinephrine pharmacokinetic profile; type: in vivo, male Yucatan miniature swine; settings: prodrug to epinephrine; actual dose 2 mg (0.1 mg/kg) IM
Protocol: (§1) Yucatan minipigs (n=4 males per group) were weighed and weights were recorded. The morning of the study, the vascular access port (VAP) of each animal was checked for proper functioning. Minipigs with viable VAP were removed from the home cage and placed in a holding sling. The animals were fasted overnight prior to dose administration and for the duration of PK blood collections.
All the formulations were prepared fresh on the day of dosing and maintained on wet ice until dosing. The dose was injected in the rear hind limb. Prior to administering, the plunger of the syringe was aspirated and observed for any blood that may flow into the syringe. If no blood was observed, it was verified that the needle was in proper placement, and the test articles were administered.
At each specified time-point, 6 mL of whole blood was collected into blood collection tubes containing K2EDTA as the anticoagulant and sodium metabisulfite as stabilizer. Sodium metabisulfite was at a concentration of 8.9 mM, pH 3 (60 μL/6 mL of whole blood of the 890 mM stock solution). SigmaFast (600 μL of SigmaFast 1× solution to 6 mL of whole blood) was added immediately to the tubes as the enzyme arresting agent. The tubes were inverted several times for mixing upon addition of SigmaFast solution. […] The resulting plasma was obtained and stored at approximately […]. The analysis of epinephrine was done using LC-MS/MS method.
as §1, with “Applicants sought to identify epinephrine prodrugs with higher permeability and slower hydrolysis after intramuscular (IM) administrations. […] Yucatan” for “Yucatan”, “minipigs” for “minipigs (n=4 males per group)”, “in the” for “weights were recorded. The”
The dose was injected in the rear hind limb. […] At each specified time-point, 6 mL of whole blood was collected into blood collection tubes containing anticoagulant and stabilizer. Protease inhibitor cocktail was added and the tubes were inverted several times for mixing. All blood samples were centrifuged and the resulting plasma was analyzed for epinephrine using LC-MS/MS method.

Compound | Conversion ratio
CCC(C)(C)C(=O)Oc1ccc(C(O)CNC)cc1OC(=O)C(C)(C)CC (stereo not shown) [AQEP-02] | 0.44
CNCC(O)c1ccc(OC(=O)N(C)C)c(OC(=O)N(C)C)c1 (stereo not shown) [AQEP-03] | 0.51
CNCC(OC(=O)C(C)(C)C)c1ccc(OC(=O)C(C)(C)C)c(OC(=O)C(C)(C)C)c1 (stereo not shown) [AQEP-01] | 0.39
CNCC(O)c1ccc(OC(=O)c2ccccc2)c(OC(=O)c2ccccc2)c1 (stereo not shown) [AQEP-04] | 0.43
